From patent US8404724B2, “Unit dose formulations and methods of treating thrombosis with an oral factor Xa inhibitor” (Millennium Pharmaceuticals, Inc., priority 2006, dated 2013)
At least one structure is not confirmed: it was looked up by name or label, or the drawing left a doubt.

Experiments:
[1] = system: TF-induced plasma thrombin generation; assay: TF-induced plasma thrombin generation assay (plasma pool); assay type: biochemical, human
Text: For the in vitro studies, a plasma pool was generated from blood collected via venipuncture into 3.2% (1:9 v/v) tri-sodium citrate from a minimum of ten donors. The specific thrombin substrate used was Z-GGR-AMC (Bachem). Tissue factor (Innovin, “TF”) was purchased from Dade Behring. Rabbit anti-human TF IgG and purified recombinant human TF were from American Diagnostica. COATEST LMW Heparin/Heparin Kits were from Chomogenix. Source of anticoagulants tested were as follows: enoxaparin sodium (Aventis Pharmaceuticals), fondaparinux sodium (Glaxo Smith Kline), bivalirudin (The Medicines Company), fXa inhibitor C921-78 (Betz, A. et al. Biochem., 1999; 38-14582-14591); rivaroxaban and razaxaban.
Thrombin generation in the plasma pool in the absence and presence of various anticoagulants and in warfarin treated patients was initiated by the addition of Innovin and calcium. Thrombin generation was measured by the continuous signal generated by cleavage of thrombin substrate over a 10 min period in a FlexStation fluorescence reader ([…]). The fluorescence signal (Max-Min relative fluorescence units) is presented as units (RFU) or arbitrary unites (AU) of thrombin generation and anti-fXa units were measured by Coatest. […]

[2] = system: tissue factor initiated thrombin generation in human whole blood; assay: Whole blood prothrombinase / tissue factor initiated thrombin generation assay; assay type: biochemical
Description: Thrombin activity was quantitated by cleavage of the fluorogenic substrate. […] Relative fluorescence unit (RFU) measurements of representative donor is shown.
Thrombin generation assays were performed as described in Example 4, with compounds added ex vivo to human whole blood. PT and aPTT values in various species determined from compounds added to platelet poor plasma. Samples were run on an ACL 3000plus (Coulter), PT determined using Dade® Thromboplastin C plus and aPTT determined using Dade® Actin® FS Activated PTT reagent.

CO[C@H]1O[C@H](COS(=O)(=O)O)[C@@H](O[C@@H]2O[C@@H](C(=O)O)[C@@H](O[C@H]3O[C@H](COS(=O)(=O)O)[C@@H](O[C@@H]4O[C@H](C(=O)O)[C@@H](O[C@H]5O[C@H](COS(=O)(=O)O)[C@@H](O)[C@H](O)[C@H]5NS(=O)(=O)O)[C@H](O)[C@H]4O)[C@H](OS(=O)(=O)O)[C@H]3NS(=O)(=O)O)[C@H](O)[C@H]2OS(=O)(=O)O)[C@H](O)[C@H]1NS(=O)(=O)O [Fondaparinux, reference compound]
IC50 [1]: 160 nM | TAT and F1.2 generation ([2]; human whole blood): significantly inhibited | platelet mediated prothrombinase activity ([2]; whole blood prothrombinase assay): dose-dependently inhibited
